# According to PubChem BioAssay AID1347423 (Functional Genomics Laboratory (NCATS/FGL), 2020):
# In all, about 52,000 sequences went through this assay and about 210 (0.4%) were called active.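 The calls were made as follows: active = gene whose silencing raises cell survival under the drug, median off-target-corrected z-score across its silencing RNAs 2 or more; inactive = the rest.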 Some of the results follow.
# Assay: Resistance to Poly (ADP-Ribose) Polymerase inhibitor: Gene Identification via Genome-wide siRNA Screen
# Conditions: mouse BRCA2 R2336H ES cells, olaparib, CellTiter-Glo viability; stronger effect = higher value
# Method in brief: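 Mouse BRCA2 R2336H ES cells were reverse-transfected with siRNA (20 nM final), treated at 48 h with 500 nM olaparib, and read by CellTiter-Glo after 72 h. Scores: MAD-based z per siRNA, median per gene, seed off-target correction.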
row,Sequence,z-score
1,GGAGAGGGAUUAGCCAGUATT against Ank3,inactive: -1.18
2,GGAGAUGAAGUUAAAGCGATT against Slc26a6,inactive: -0.466
3,GGUCAGGUUGAGGACAUAATT against 4932416A11Rik,inactive: -1.95
4,GGGAGAUAAAACCAACUUUTT against Fkbp3,inactive: 1.03
5,GGCCAUCCAGAAUUACAUGTT against B130052G07Rik,inactive: -1.01
6,GGAUCUGGUACCCACCCAATT against Jak2,inactive: 0.213
7,GGAAGUGAGGGAAGAAAUUTT against Zcchc9,inactive: -3.17
8,GGUGUCAUCUUCCUGCUUGTT against Olfr93,inactive: -0.749
9,CCAAUCUGAAGUGCUACUATT against Trim42,inactive: -1.53
10,GGUUAUUUCUAAAGUUCCUTT against Sphk1,inactive: -0.505
11,GGCCUCACACGUCUUAAAATT against Prkcz,inactive: -0.0567
12,GGUGAGCCUGGAAAAUUAUTT against Tm4sf6,inactive: -0.668
13,GGAGAUUGACGGUGUGAUGTT against Cacna2d2,inactive: 0.556
14,CCCAGUCAGAGAUCGAUACTT against Naglu,inactive: 0.216
15,GGAGAAUGGCAAGAAUGAATT against Gpx1,inactive: -0.617
16,GCGGAGAGCGAUGAUCUUUTT against C230090D14,inactive: 0.502
17,GGAAAUUUGAAGCAAGAAGTT against Mertk,inactive: 0.406
18,GGAUGAUAUGGCAUACUUUTT against D330028D13Rik,inactive: -1.24
19,GGACUGUUCAUUGAUUGUATT against AF397014,inactive: -1.64
20,GGUGACUCAGAGAGUAAAATT against D830050J10Rik,inactive: -0.355
21,CCAAAACAUUAACCUGAAGTT against Pla2g6,inactive: -0.895
22,CGGGAAACAUUAGUGAAUUTT against Mapre2,inactive: -0.0999
23,GGAAAGAGAAUAAAUAAGGTT against Amhr2,inactive: 0.0413
24,GGGUUACCUCCUGACUGUUTT against Olfr930,inactive: -0.558
25,GGCUAUUACCAUGGCCACUTT against 2210020M01Rik,inactive: -2.11
26,GGUAUUGAAAUGGAAAAGGTT against D6Wsu163e,inactive: 0.345
27,GCAGGUGGAUCUUAUAUGGTT against Cabin1,inactive: 0.0481
28,CCUACAAACCUGCUUAUCCTT against Srebf2,inactive: -0.108

# A different layout for part of the listing above.
row	Sequence	z-score
26	GGUAUUGAAAUGGAAAAGGTT against D6Wsu163e	inactive: 0.345
27	GCAGGUGGAUCUUAUAUGGTT against Cabin1	inactive: 0.0481
